Laboratory results: the supplement of paper PMC10849652
Some of the results follow.

Protein sequences, listed by entry. Tags and fused reporters are not part of them. Lines headed by an entry give the natural chain unless they say otherwise; changes in a name come on top.
UniProt O00764: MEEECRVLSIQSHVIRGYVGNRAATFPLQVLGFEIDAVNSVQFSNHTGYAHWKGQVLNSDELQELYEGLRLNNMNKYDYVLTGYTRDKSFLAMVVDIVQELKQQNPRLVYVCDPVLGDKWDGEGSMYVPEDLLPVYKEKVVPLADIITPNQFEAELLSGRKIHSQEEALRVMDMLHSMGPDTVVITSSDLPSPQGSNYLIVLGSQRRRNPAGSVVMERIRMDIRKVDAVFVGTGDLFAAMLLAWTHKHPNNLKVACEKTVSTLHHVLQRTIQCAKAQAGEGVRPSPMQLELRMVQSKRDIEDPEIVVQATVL
UniProt Q9BUH6, whole entry, looked up: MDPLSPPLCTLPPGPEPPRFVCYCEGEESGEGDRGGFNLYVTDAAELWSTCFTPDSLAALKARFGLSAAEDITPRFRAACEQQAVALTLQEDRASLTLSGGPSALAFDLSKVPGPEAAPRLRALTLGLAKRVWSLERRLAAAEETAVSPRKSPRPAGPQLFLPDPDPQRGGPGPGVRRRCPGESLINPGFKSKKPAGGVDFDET
UniProt Q86VP3, whole entry, looked up: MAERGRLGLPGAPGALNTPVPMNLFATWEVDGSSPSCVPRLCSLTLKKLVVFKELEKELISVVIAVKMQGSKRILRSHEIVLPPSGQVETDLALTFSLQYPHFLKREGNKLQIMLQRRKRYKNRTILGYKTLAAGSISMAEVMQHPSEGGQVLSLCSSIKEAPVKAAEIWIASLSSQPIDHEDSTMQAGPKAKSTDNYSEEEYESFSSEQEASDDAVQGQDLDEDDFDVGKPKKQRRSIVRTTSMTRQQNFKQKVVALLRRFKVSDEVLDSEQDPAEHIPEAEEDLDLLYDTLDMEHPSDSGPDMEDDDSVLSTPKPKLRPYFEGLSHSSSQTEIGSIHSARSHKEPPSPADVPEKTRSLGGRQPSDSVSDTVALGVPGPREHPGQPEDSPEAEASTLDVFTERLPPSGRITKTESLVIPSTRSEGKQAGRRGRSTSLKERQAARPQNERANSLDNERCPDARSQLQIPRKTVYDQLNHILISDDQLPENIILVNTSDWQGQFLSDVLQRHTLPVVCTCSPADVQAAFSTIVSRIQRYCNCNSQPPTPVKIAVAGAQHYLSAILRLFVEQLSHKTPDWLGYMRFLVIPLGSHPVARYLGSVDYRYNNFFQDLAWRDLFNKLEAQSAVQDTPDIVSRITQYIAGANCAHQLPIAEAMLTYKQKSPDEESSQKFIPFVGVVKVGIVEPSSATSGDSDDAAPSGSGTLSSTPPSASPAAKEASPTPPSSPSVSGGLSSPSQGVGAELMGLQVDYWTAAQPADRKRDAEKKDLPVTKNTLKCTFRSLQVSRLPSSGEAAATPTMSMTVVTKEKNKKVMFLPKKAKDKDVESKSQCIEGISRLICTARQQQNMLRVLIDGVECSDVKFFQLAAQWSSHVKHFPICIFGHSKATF
UniProt Q5T2R2: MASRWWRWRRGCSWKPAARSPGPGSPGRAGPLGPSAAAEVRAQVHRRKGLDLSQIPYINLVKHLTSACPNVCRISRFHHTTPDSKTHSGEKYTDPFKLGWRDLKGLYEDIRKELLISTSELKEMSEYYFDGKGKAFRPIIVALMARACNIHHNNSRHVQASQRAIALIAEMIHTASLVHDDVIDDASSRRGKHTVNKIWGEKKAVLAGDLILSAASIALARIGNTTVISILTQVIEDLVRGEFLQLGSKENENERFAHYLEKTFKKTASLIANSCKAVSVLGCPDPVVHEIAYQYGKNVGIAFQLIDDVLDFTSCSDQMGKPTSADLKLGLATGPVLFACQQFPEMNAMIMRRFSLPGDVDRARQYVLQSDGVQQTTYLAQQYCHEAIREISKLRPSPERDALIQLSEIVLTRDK
UniProt Q99497, whole entry, looked up: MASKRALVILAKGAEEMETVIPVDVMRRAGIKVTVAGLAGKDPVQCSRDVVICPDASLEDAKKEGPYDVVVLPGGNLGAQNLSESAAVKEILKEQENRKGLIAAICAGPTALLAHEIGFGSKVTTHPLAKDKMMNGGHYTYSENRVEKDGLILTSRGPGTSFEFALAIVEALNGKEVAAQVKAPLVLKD
UniProt Q13310, whole entry, looked up: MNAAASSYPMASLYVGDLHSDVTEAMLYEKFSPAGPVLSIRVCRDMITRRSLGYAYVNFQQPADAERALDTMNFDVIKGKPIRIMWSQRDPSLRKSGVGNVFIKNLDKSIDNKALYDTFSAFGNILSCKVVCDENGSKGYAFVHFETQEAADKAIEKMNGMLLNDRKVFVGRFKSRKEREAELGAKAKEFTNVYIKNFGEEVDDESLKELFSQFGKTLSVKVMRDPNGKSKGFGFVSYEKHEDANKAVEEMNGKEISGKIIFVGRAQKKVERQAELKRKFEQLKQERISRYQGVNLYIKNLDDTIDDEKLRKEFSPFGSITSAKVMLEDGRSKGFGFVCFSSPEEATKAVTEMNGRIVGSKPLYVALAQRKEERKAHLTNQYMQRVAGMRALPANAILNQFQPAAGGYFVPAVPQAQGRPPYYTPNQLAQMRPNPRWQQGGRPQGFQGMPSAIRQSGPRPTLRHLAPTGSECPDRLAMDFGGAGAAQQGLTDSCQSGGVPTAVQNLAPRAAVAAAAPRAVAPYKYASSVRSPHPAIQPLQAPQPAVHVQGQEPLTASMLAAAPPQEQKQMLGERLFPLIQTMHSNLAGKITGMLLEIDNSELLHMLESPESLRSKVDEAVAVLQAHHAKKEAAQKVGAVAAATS
UniProt Q9BPZ3: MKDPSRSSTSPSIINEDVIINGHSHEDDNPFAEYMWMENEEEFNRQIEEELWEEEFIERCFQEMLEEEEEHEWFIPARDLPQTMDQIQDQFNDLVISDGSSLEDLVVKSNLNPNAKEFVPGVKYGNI
UniProt O00330, whole entry, looked up: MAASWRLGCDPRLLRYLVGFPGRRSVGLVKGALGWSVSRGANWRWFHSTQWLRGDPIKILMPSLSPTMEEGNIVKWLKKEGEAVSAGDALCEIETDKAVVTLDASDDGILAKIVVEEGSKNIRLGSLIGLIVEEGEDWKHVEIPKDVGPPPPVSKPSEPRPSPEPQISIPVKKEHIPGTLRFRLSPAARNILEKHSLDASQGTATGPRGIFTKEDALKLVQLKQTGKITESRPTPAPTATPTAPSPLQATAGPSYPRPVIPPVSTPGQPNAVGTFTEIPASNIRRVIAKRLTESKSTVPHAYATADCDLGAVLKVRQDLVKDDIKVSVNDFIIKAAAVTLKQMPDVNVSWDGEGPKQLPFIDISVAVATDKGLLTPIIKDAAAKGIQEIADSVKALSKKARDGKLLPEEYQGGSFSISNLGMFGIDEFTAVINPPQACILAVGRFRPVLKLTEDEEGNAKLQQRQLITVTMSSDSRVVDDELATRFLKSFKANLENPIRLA
UniProt Q96GD0: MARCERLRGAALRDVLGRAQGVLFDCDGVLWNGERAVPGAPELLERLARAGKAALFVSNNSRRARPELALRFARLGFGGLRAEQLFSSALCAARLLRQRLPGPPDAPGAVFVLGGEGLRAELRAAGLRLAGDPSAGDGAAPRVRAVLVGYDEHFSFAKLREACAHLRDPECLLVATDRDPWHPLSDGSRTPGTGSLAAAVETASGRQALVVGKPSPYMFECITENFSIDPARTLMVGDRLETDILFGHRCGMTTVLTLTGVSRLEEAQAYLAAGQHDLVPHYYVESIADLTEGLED
UniProt O43933: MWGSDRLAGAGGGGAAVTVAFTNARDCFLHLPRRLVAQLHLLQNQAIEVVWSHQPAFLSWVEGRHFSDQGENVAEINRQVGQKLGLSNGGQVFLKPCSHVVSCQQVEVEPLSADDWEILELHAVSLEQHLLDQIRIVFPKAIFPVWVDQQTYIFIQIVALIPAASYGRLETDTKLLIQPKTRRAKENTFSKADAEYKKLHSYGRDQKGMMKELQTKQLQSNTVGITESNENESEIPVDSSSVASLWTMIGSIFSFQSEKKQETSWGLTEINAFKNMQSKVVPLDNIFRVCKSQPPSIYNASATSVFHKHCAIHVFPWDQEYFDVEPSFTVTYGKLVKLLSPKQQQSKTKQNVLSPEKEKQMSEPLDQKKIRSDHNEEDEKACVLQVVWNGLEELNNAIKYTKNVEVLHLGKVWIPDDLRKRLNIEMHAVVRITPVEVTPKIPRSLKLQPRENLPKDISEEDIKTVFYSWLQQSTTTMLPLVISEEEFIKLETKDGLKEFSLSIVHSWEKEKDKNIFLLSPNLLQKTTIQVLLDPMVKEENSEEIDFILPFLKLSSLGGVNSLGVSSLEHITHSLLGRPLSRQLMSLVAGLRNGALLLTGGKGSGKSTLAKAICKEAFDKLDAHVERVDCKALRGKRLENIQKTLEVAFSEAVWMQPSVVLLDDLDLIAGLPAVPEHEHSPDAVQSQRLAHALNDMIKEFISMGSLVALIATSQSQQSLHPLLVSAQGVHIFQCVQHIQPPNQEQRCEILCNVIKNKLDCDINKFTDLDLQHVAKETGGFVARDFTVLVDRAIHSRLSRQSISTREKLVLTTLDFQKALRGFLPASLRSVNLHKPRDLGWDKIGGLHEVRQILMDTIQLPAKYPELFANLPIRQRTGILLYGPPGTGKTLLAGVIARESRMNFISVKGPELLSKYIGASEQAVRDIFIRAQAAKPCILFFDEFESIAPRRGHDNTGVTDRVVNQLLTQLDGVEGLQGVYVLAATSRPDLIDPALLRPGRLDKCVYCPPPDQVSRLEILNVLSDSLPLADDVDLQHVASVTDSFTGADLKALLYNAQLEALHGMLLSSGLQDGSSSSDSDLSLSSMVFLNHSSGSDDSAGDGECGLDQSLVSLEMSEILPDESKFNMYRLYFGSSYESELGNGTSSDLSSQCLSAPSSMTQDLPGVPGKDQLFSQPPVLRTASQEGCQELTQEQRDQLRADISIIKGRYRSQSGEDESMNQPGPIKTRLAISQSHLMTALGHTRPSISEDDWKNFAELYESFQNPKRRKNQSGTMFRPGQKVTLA
UniProt Q9HBI1: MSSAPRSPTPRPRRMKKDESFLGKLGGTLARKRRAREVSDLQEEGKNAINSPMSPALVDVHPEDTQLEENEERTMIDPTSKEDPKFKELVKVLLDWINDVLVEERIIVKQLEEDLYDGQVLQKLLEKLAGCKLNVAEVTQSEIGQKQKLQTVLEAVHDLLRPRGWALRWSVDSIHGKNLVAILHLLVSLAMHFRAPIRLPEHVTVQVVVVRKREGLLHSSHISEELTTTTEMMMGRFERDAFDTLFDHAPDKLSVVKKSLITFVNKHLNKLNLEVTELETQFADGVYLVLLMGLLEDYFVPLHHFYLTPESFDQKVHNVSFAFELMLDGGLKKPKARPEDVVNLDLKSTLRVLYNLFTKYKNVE
UniProt P0DJ07: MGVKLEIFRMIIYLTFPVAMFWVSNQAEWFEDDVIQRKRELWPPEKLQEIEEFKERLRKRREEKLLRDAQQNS
UniProt P61457: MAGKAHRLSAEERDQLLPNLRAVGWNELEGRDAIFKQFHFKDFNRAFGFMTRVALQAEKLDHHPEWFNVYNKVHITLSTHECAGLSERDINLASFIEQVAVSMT
UniProt Q9BYG5: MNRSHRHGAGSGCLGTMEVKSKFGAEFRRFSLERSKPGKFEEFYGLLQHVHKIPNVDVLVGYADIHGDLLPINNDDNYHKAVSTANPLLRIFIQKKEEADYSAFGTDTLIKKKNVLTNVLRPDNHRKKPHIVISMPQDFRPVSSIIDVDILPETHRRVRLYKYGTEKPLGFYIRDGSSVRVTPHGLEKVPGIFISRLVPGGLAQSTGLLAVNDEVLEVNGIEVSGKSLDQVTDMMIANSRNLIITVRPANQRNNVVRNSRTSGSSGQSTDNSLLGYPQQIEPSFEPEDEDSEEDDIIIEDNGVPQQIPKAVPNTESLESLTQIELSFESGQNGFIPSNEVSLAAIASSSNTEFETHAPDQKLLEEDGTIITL
UniProt O00623: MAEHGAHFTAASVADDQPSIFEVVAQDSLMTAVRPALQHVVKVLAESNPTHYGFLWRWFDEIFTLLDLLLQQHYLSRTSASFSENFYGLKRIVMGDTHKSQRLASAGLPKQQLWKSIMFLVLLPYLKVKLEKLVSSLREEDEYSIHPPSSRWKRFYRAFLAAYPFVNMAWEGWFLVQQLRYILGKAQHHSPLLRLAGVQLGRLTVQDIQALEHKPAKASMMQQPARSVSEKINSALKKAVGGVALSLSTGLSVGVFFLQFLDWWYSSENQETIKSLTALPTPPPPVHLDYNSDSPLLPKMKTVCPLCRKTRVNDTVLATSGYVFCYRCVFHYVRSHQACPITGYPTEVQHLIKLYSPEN

How the values were obtained:
Test in all cases: log2 fold change, soluble protein after heating vs DMSO (PISA); higher = thermal stabilisation; K562 cells, 10 uM, 30 min; active = over 0.2 and 3.5 SD of the protein, either way, in both replicates (recomputed)
[1] = compound: CS(=O)(=O)c1ccc(-c2cnc(N)c(C(=O)Nc3ccccc3)n2)cc1
Outline: (§1)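 Thermal stability values are relative to control samples and come from duplicates. They are expressed as log2 fold changes. For measurement, K562 cells (2×10^6 cells/mL) received 10 μM compound for 30 min, and aliquots were heated for 3 min over 48°C-58°C, pooled, and extracted at 4°C in PBS with 0.5% NP-40. Soluble protein, the supernatant after 21,000xg for 90 min, was quantified by TMTpro 16plex LC-MS/MS with equalised channel sums.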

crizotinib = compound: C[C@@H](Oc1cc(-c2cnn(C3CCNCC3)c2)cnc1N)c1c(Cl)ccc(F)c1Cl [crizotinib]
Outline: as §1

[2] = compound: C[C@@H]1COCCN1C2=NC(=NC(=C2)C3(CC3)S(=O)(=O)C)C4=C5C=CNC5=CC=C4
Outline: as §1

[3] = compound: C[C@H](C1=CC=C(C=C1)C(=O)NC2=C3C=CNC3=NC=C2)N
Outline: as §1

duvelisib = compound: C[C@H](Nc1ncnc2nc[nH]c12)c1cc2cccc(Cl)c2c(=O)n1-c1ccccc1 [duvelisib]
Outline: as §1

gandotinib = compound: Cc1cc(Nc2cc(CN3CCOCC3)c3nc(C)c(Cc4ccc(Cl)cc4F)n3n2)n[nH]1 [gandotinib]
Outline: as §1

tozasertib = compound: Cc1cc(Nc2cc(N3CCN(C)CC3)nc(Sc3ccc(NC(=O)C4CC4)cc3)n2)n[nH]1 [tozasertib]
Outline: as §1

[4] = compound: Cc1cc(SCc2sc(-c3ccc(C(F)(F)F)cc3)nc2C)ccc1OCC(=O)O
Outline: as §1

doramapimod = compound: Cc1ccc(-n2nc(C(C)(C)C)cc2NC(=O)Nc2ccc(OCCN3CCOCC3)c3ccccc23)cc1 [doramapimod]
Outline: as §1

ispinesib = compound: Cc1ccc(C(=O)N(CCCN)[C@@H](c2nc3cc(Cl)ccc3c(=O)n2Cc2ccccc2)C(C)C)cc1 [ispinesib]
Outline: as §1

bafetinib = compound: Cc1ccc(NC(=O)c2ccc(CN3CC[C@H](N(C)C)C3)c(C(F)(F)F)c2)cc1Nc1nccc(-c2cncnc2)n1 [bafetinib]
Outline: as §1

[5] = compound: Cc1cccc(CC(=O)N2CCc3c2ccc(-c2cn(C)c4ncnc(N)c24)c3F)n1
Outline: as §1

nilotinib = compound: Cc1cn(-c2cc(NC(=O)c3ccc(C)c(Nc4nccc(-c5cccnc5)n4)c3)cc(C(F)(F)F)c2)cn1 [nilotinib]
Outline: as §1

[6] = compound: Cc1nc(Nc2n[nH]c3c2CN(C(=O)N[C@H](CN(C)C)c2ccccc2)C3(C)C)c2sccc2n1
Outline: as §1

dasatinib = compound: Cc1nc(Nc2ncc(C(=O)Nc3c(C)cccc3Cl)s2)cc(N2CCN(CCO)CC2)n1 [dasatinib]
Outline: as §1

[7] = compound: Cc1ncc(-c2ccnc(Nc3ccc(S(C)(=O)=O)cc3)n2)n1C(C)C
Outline: as §1

[8] = compound: Cn1cc(-c2ccc3c(c2)CCN3C(=O)Cc2cccc(C(F)(F)F)c2)c2c(N)ncnc21
Outline: as §1

[9] = compound: Cn1cc(-c2ccc3nnc(C(F)(F)c4ccc5ncccc5c4)n3n2)cn1
Outline: as §1

tipifarnib = compound: Cn1cncc1[C@@](N)(c1ccc(Cl)cc1)c1ccc2c(c1)c(-c1cccc(Cl)c1)cc(=O)n2C [tipifarnib]
Outline: as §1

mubritinib = compound: FC(F)(F)c1ccc(/C=C/c2nc(COc3ccc(CCCCn4ccnn4)cc3)co2)cc1 [mubritinib]
Outline: as §1

Measured: log2 fold change

PDXK (UniProt O00764)
inactive: [1] 0.03 | crizotinib 0.007 | [2] -0.019 | [3] -0.028 | duvelisib 0.035 | gandotinib -0.01 | tozasertib -0.037 | [4] -0.012 | doramapimod -0.007 | ispinesib 0.061 | bafetinib -0.022 | [5] 0.003 | nilotinib 0.017 | [6] -0.037 | dasatinib 0.023 | [7] -0.01 | [8] -0.031 | [9] -0.034 | tipifarnib -0.012 | mubritinib 0.015

PAXX (UniProt Q9BUH6)
inactive: [1] -0.043 | crizotinib 0.036 | [2] -0.117 | [3] -0.039 | duvelisib 0.028 | gandotinib 0.008 | tozasertib 0 | [4] -0.016 | doramapimod 0.021 | ispinesib -0.051 | bafetinib -0.049 | [5] 0.027 | nilotinib 0.05 | [6] -0.011 | dasatinib -0.011 | [7] -0.009 | [8] 0.019 | [9] 0.03 | tipifarnib -0.023 | mubritinib 0.041

PACS2 isoform 2 (UniProt Q86VP3)
inactive: [1] 0.061

PDSS1 (UniProt Q5T2R2)
inactive: [1] 0.073 | crizotinib 0.063 | [2] -0.017 | [3] -0.085 | duvelisib -0.026 | gandotinib 0.029 | tozasertib 0.024 | [4] 0.074 | doramapimod 0.064 | ispinesib 0.024 | bafetinib -0.009 | [5] 0.026 | nilotinib -0.019 | [6] 0.028 | dasatinib -0.08 | [7] -0.042 | [8] 0.138 | [9] -0.031 | tipifarnib 0.072 | mubritinib 0.034

PARK7 (UniProt Q99497)
inactive: [1] -0.042 | crizotinib 0.01 | [2] 0.044 | [3] -0.123 | duvelisib -0.011 | gandotinib -0.109 | tozasertib 0.004 | [4] 0.007 | doramapimod -0.001 | ispinesib 0.133 | bafetinib 0.007 | [5] 0.143 | nilotinib -0.022 | [6] 0 | dasatinib -0.003 | [7] -0.01 | [8] 0.09 | [9] -0.007 | tipifarnib -0.096 | mubritinib 0.013

PABPC4 isoform 3 (UniProt Q13310)
inactive: [1] -0.058 | crizotinib -0.011 | [2] -0.178 | [3] 0.05 | duvelisib -0.076 | gandotinib 0.032 | tozasertib 0.056 | [4] 0.037 | doramapimod 0.011 | ispinesib -0.095 | bafetinib 0.024 | [5] -0.018 | nilotinib -0.041 | [6] -0.029 | dasatinib 0.038 | [7] -0.01 | [8] -0.124 | [9] -0.081 | tipifarnib 0.041 | mubritinib -0.009

PAIP2 (UniProt Q9BPZ3)
inactive: [1] -0.057 | crizotinib 0.012 | [2] -0.003 | [3] 0.182 | duvelisib 0.094 | gandotinib 0.036 | tozasertib 0.087 | [4] -0.016 | doramapimod 0.068 | ispinesib -0.101 | bafetinib 0.028 | [5] 0.048 | nilotinib -0.085 | [6] 0.117 | dasatinib -0.081 | [7] 0.129 | [8] -0.338 | [9] -0.039 | tipifarnib 0.003 | mubritinib 0.055

PDHX (UniProt O00330)
inactive: [1] 0.032 | crizotinib 0.092 | [2] -0.132 | [3] 0.241 | duvelisib -0.155 | gandotinib 0.089 | tozasertib 0.122 | [4] 0.085 | doramapimod 0.163 | ispinesib -0.148 | bafetinib 0.169 | [5] 0.046 | nilotinib -0.01 | [6] 0.137 | dasatinib 0.057 | [7] -0.058 | [8] -0.316 | [9] -0.086 | tipifarnib 0.292 | mubritinib -0.229

PDXP (UniProt Q96GD0)
inactive: [1] -0.01 | crizotinib 0.04 | [2] 0.071 | [3] 0.024 | duvelisib 0.02 | gandotinib -0.015 | tozasertib -0.061 | [4] -0.068 | doramapimod 0.003 | ispinesib 0.013 | bafetinib -0.031 | [5] -0.039 | nilotinib 0.002 | [6] 0.01 | dasatinib 0.021 | [7] -0.03 | [8] 0.04 | [9] 0.036 | tipifarnib -0.022 | mubritinib 0.031

Two neighbouring records from above, for reference:
PABPC4 isoform 3 (UniProt Q13310)
inactive: [1] -0.058 | crizotinib -0.011 | [2] -0.178 | [3] 0.05 | duvelisib -0.076 | gandotinib 0.032 | tozasertib 0.056 | [4] 0.037 | doramapimod 0.011 | ispinesib -0.095 | bafetinib 0.024 | [5] -0.018 | nilotinib -0.041 | [6] -0.029 | dasatinib 0.038 | [7] -0.01 | [8] -0.124 | [9] -0.081 | tipifarnib 0.041 | mubritinib -0.009

PAIP2 (UniProt Q9BPZ3)
inactive: [1] -0.057 | crizotinib 0.012 | [2] -0.003 | [3] 0.182 | duvelisib 0.094 | gandotinib 0.036 | tozasertib 0.087 | [4] -0.016 | doramapimod 0.068 | ispinesib -0.101 | bafetinib 0.028 | [5] 0.048 | nilotinib -0.085 | [6] 0.117 | dasatinib -0.081 | [7] 0.129 | [8] -0.338 | [9] -0.039 | tipifarnib 0.003 | mubritinib 0.055

The results go on:

PEX1 (UniProt O43933)
inactive: [1] 0.042 | crizotinib 0.038 | [2] -0.018 | [3] -0.013 | duvelisib 0.034 | gandotinib -0.062 | tozasertib 0.034 | [4] 0.029 | doramapimod -0.029 | ispinesib 0.056 | bafetinib -0.04 | [5] 0.004 | nilotinib 0.005 | [6] -0.001 | dasatinib -0.015 | [7] -0.034 | [8] -0.003 | [9] 0.004 | tipifarnib 0.046 | mubritinib 0.028

PARVB (UniProt Q9HBI1)
inactive: [1] 0.06 | crizotinib -0.096 | [2] 0.086 | [3] 0.002 | duvelisib 0.067 | gandotinib -0.058 | tozasertib -0.056 | [4] 0.066 | doramapimod 0.041 | ispinesib -0.083 | bafetinib -0.028 | [5] 0.031 | nilotinib -0.039 | [6] -0.042 | dasatinib -0.197 | [7] -0.011 | [8] 0.019 | [9] 0.014 | tipifarnib -0.046 | mubritinib 0.075

PALMD (UniProt Q9NP74)
inactive: [1] -0.42 | crizotinib 0.007 | [2] -0.017 | [3] -0.051 | duvelisib 0.038 | gandotinib 0.009 | tozasertib -0.012 | [4] 0.002 | doramapimod -0.031 | ispinesib 0.033 | bafetinib 0.019 | [5] -0.016 | nilotinib 0.029 | [6] -0.076 | dasatinib 0.042 | [7] 0.064 | [8] -0.012 | [9] -0.076 | tipifarnib 0.059 | mubritinib -0.086

PET100 (UniProt P0DJ07)
inactive: [1] 0.114 | crizotinib 0.061 | [2] 0.104 | [3] -0.021 | duvelisib 0.05 | gandotinib -0.045 | tozasertib -0.039 | [4] -0.045 | doramapimod 0.008 | ispinesib 0.148 | bafetinib -0.02 | [5] -0.005 | nilotinib 0.002 | [6] 0.05 | dasatinib -0.056 | [7] -0.038 | [8] 0.039 | [9] 0.061 | tipifarnib 0.198 | mubritinib 0.051

PCBD1 (UniProt P61457)
inactive: [1] 0.045 | crizotinib 0.068 | [2] 0.097 | [3] -0.088 | duvelisib 0.044 | gandotinib 0.064 | tozasertib -0.014 | [4] -0.008 | doramapimod 0.004 | ispinesib 0.11 | bafetinib -0.07 | [5] -0.021 | nilotinib 0.019 | [6] 0.009 | dasatinib 0.069 | [7] -0.019 | [8] 0.045 | [9] 0.087 | tipifarnib -0.003 | mubritinib 0.003

PARD6B (UniProt Q9BYG5)
inactive: [1] 0.104 | crizotinib 0.137 | [2] 0.068 | [3] 0.069 | duvelisib -0.068 | gandotinib 0.032 | tozasertib -0.075 | [4] 0.027 | doramapimod 0.054 | ispinesib -0.026 | bafetinib 0.011 | [5] 0.022 | nilotinib -0.022 | [6] 0.025 | dasatinib -0.045 | [7] -0.021 | [8] 0.034 | [9] 0.09 | tipifarnib -0.155 | mubritinib 0.105

PAPOLA (UniProt P51003)
inactive: [1] 0.006 | crizotinib -0.011 | [2] 0.077 | [3] -0.035 | duvelisib 0.025 | gandotinib -0.086 | tozasertib -0.02 | [4] 0.022 | doramapimod -0.002 | ispinesib 0.019 | bafetinib -0.066 | [5] -0.005 | nilotinib -0.029 | [6] -0.02 | dasatinib -0.079 | [7] -0.003 | [8] 0.015 | [9] 0.041 | tipifarnib -0.033 | mubritinib -0.003

PEX12 (UniProt O00623)
inactive: [1] 0.095 | crizotinib -0.024 | [2] -0.009 | [3] -0.021 | duvelisib 0.018 | gandotinib 0.193 | tozasertib -0.015 | [4] 0 | doramapimod -0.036 | ispinesib -0.159 | bafetinib -0.016 | [5] -0.101 | nilotinib -0.025 | [6] 0.02 | dasatinib -0.099 | [7] -0.035 | [8] 0.122 | [9] 0.011 | tipifarnib -0.031 | mubritinib 0.137
